# Measured values as given in PubChem BioAssay AID1259354 (Paczesny and Yang Labs, IUPUI and University of Michigan, 2018).
# The chains behind the UniProt entries cited, without tags or fusion partners. Where a name states a change or a piece, a line headed by the entry shows the natural chain unless it says otherwise.
# UniProt Q01638: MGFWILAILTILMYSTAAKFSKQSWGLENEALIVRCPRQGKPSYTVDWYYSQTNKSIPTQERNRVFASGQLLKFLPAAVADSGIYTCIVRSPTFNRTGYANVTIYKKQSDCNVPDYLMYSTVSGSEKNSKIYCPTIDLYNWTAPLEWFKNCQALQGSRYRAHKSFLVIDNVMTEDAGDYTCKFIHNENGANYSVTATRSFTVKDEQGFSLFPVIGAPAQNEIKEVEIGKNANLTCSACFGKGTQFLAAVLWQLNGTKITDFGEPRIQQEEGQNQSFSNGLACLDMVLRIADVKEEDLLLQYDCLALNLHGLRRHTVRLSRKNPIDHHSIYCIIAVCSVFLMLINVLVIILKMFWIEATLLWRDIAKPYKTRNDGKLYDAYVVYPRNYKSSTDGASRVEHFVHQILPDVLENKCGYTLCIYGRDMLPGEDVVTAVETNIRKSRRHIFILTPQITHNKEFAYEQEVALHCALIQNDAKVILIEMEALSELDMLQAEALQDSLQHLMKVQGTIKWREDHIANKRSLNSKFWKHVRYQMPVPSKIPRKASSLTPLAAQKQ
# In all, about 78,000 compounds went through this assay and about 1,800 (2.3%) were called active. The inconclusive results got no clear call from the source; some entries with a clear call stand among them for comparison. Cut-off read from the data, not from the text of the source: active = inhibition above about 30%; inconclusive = mostly about 10% to 28%; inactive = weaker than that.
# Molecular target: Interleukin-1 receptor-like 1 (Homo sapiens) (UniProt Q01638)
# Test: blocks human ST2 binding to IL-33, primary screen, biochemical, AlphaLISA (AID 1259354)
# Conditions: AlphaLISA ST2-Fc/biotin-IL-33 interaction, 1 h; at 17 µM, hits give high values
row,SMILES,inhibition
1,CC(C)c1ccc(S(=O)(=O)Nc2ccc3oc(=O)sc3c2)cc1,inactive
2,CCOC(=O)N1CCC(NCC(=O)Nc2ccc(N(C)C(C)=O)cc2)CC1,inactive
3,CCOC(=O)c1c(C)oc2ccc(OCC(=O)c3ccc(OC)cc3)cc12,inconclusive: 10%
4,O=C(c1ncoc1C1CC1)N1CCC2(CCCN(CC3CCC3)C2=O)C1 (stereo unspecified),inconclusive: 10%
5,O=C1CCCC2=C1C(c1cccs1)c1c(nc(SCc3ccccc3Cl)[nH]c1=O)N2 (stereo unspecified),inconclusive: 10%
6,Cc1ccoc1C(=O)N1CC[C@@H](c2ccc3c(c2)OCO3)[C@H](O)C1,inactive
7,Cc1ccc(Cl)cc1NC(=O)c1cccc(F)c1,inactive
8,CC1CCCC(NC(=O)c2c[nH]c3ccc(S(=O)(=O)Nc4ccccc4F)cc3c2=O)C1C (stereo unspecified),inactive
9,CNc1nc2c(C)cccn2c(=O)c1C=Nc1ccccc1,active: 33%
10,COc1ccc(N2CN=c3s/c(=C\c4ccccn4)c(=O)n3C2)cc1,active: 32%
11,Cc1sc(-c2nsc(=O)o2)cc1[N+](=O)[O-],inconclusive: 18%
12,O=C(Nc1cc(Cl)ccc1O)c1cc(-c2ccc(Br)cc2)on1,inconclusive: 23%
13,COC(=O)CSC1=C(C#N)C(c2ccc(OC)c(OCc3ccccc3)c2)CC(=O)N1 (stereo unspecified),inactive
14,CC(C)c1cc(NCc2cccnc2N2CCCC(O)C2)nc(C(F)(F)F)n1 (stereo unspecified),inactive
15,CN1CC(c2ccccc2)OC1=O (stereo unspecified),inconclusive: 12%
16,Cn1ccn2ncc(C(=O)NCCN3CCc4ccccc4C3)c12,inconclusive: 13%
17,Cc1c(C(=O)NCC2CCCO2)oc2ccc(S(=O)(=O)N3CCOCC3)cc12 (stereo unspecified),inconclusive: 12%
18,Cc1ccc(N2CCN(S(=O)(=O)c3cccc4cccnc34)CC2C)cc1 (stereo unspecified),inconclusive: 14%
19,CC1C2(C)OC(=N)C(C#N)(C(c3cccc(F)c3)O2)C1(C#N)C#N (stereo unspecified),inconclusive: 25%
20,CNC(=O)[C@H]1O[C@@H](n2cnc3c(NCc4cccc(I)c4)ncnc32)[C@H](O)[C@@H]1O,inconclusive: 10%
21,CCOC(=O)c1c(NC(=O)c2ccc(S(=O)(=O)N3CCCC3)cc2)sc2c1CCN(C)C2,inactive
22,Cc1cc2ccccc2c(=O)n1CC(=O)NCC(=O)Nc1cccc(C(F)(F)F)c1,inactive
23,O=C(NCCc1ccccc1)c1ccc2c(c1)N(Cc1ccccc1F)C(=O)CS2,inactive
24,COc1cc(/C=C2/C(=O)N=C(N)N2C)cc(Br)c1O,inconclusive: 15%
25,COc1cc(/C=C2\C(=O)N(c3cccc(Cl)c3)N=C2C)c([N+](=O)[O-])cc1OC,inconclusive: 23%
26,CCOC(=O)C1(Cc2ccc(F)cc2F)CCCN(C(=O)c2ccc(OC)nc2OC)C1 (stereo unspecified),inactive

# Some values from above.
# `O=C1CCCC2=C1C(c1cccs1)c1c(nc(SCc3ccccc3Cl)[nH]c1=O)N2` (stereo unspecified) | inhibition: inconclusive: 10%
# `Cc1ccoc1C(=O)N1CC[C@@H](c2ccc3c(c2)OCO3)[C@H](O)C1` | inhibition: inactive
